Data taken from paper PMC7463354.

Assays:
[1] = target: T1, HA-LIN28A-WT (Homo sapiens) (UniProt Q9H9Z2); test: pull-down; details: 293T lysate, anti-HA immunoblot; protein in a lysate after overexpression; residues 1-209; protein details: HA; label: biotin (T7 transcribed); letters put together from the description
T1 sequence (looked up): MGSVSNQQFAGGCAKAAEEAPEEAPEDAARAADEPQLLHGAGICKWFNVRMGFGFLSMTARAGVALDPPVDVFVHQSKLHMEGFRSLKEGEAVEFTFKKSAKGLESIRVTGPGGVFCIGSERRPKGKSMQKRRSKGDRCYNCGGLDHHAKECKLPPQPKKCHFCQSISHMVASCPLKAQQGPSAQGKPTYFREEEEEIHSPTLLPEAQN

[2] = target: T2, HA-LIN28A-K15R (Homo sapiens) (UniProt Q9H9Z2); test: pull-down; details: 293T lysate, anti-HA immunoblot, less than WT; protein in a lysate after overexpression; residues 1-209; protein details: HA; label: biotin (T7 transcribed); letters put together from the description
T2 sequence (looked up): T1 sequence (looked up) with K15R

“UGAGGUAGUAGUUUGUACAGUUUGAGGGUCUAUGAUACCACCCGGUACAGGAGAUAACUGUACAGGCCACUGCCUUGC [pre-let-7g]”: binds [1]; binds more weakly [2].

Changes are numbered by the printed parent chain. The exact form of at least one protein or probe is not confirmed. At least one result comes from cells or an extract, where the contact may be indirect. For some assays here: The comparison behind a weaker result is the experiment's own reference, which may not be listed here. Protein sequences can lack the tags named with them.
